Measured values published in the supplement of paper PMC6411743.
± gives the standard deviation of the averaged measurements. This is a selection; strong and weak results do not stand in their true shares.

The chains behind the UniProt entries cited, without tags or fusion partners. Where a name states a change or a piece, a line headed by the entry shows the natural chain unless it says otherwise.
UniProt P20674, whole entry: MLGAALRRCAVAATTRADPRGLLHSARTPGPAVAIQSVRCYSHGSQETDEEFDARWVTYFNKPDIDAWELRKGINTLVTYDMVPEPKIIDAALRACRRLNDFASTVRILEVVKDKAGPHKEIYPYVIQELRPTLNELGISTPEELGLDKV
UniProt Q86Z02: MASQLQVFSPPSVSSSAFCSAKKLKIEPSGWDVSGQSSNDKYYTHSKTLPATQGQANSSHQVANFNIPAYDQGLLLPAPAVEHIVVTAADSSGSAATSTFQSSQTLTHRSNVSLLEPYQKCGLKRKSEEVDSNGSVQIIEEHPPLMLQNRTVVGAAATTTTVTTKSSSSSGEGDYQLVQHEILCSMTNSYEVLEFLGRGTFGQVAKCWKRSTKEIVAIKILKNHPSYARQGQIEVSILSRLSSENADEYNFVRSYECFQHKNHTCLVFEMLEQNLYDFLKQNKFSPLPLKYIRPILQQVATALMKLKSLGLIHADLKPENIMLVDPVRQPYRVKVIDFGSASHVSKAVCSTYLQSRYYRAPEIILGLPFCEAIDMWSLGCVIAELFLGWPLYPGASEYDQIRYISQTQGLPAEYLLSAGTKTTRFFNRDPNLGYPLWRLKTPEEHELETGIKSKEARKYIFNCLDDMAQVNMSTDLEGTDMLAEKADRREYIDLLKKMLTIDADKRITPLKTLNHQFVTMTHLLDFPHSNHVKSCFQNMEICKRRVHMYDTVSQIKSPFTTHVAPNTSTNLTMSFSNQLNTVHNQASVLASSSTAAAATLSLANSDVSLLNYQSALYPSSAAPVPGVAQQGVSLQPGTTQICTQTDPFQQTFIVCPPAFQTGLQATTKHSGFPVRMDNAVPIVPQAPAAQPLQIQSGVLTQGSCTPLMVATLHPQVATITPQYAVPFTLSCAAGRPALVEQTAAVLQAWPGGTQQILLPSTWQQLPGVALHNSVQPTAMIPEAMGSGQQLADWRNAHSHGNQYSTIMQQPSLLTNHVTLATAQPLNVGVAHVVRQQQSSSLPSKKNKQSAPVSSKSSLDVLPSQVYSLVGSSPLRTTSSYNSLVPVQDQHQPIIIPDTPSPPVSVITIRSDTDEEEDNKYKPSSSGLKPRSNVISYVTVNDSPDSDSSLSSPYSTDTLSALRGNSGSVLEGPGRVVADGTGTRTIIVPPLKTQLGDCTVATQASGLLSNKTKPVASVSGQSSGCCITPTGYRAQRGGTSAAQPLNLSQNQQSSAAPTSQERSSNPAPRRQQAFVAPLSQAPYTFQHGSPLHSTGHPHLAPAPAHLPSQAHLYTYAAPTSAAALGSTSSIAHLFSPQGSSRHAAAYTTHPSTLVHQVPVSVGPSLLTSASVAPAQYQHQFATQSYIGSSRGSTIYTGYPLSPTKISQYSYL
UniProt Q15438: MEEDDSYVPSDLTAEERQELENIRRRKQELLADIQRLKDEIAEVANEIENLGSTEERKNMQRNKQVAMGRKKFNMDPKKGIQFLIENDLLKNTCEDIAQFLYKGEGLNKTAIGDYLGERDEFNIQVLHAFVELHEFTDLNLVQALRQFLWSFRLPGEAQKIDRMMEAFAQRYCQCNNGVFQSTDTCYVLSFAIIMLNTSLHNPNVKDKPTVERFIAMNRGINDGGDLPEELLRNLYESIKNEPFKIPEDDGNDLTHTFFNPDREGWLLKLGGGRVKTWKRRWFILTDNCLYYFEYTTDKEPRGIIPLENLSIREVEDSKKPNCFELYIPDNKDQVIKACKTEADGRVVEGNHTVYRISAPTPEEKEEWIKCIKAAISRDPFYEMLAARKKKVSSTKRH
UniProt Q9Y3E5: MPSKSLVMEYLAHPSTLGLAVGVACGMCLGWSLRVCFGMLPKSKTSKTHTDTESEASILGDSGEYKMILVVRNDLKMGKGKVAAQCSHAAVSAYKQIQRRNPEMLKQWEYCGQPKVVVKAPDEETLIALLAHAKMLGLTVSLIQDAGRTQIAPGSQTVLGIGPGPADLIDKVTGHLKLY
UniProt Q8WXA3: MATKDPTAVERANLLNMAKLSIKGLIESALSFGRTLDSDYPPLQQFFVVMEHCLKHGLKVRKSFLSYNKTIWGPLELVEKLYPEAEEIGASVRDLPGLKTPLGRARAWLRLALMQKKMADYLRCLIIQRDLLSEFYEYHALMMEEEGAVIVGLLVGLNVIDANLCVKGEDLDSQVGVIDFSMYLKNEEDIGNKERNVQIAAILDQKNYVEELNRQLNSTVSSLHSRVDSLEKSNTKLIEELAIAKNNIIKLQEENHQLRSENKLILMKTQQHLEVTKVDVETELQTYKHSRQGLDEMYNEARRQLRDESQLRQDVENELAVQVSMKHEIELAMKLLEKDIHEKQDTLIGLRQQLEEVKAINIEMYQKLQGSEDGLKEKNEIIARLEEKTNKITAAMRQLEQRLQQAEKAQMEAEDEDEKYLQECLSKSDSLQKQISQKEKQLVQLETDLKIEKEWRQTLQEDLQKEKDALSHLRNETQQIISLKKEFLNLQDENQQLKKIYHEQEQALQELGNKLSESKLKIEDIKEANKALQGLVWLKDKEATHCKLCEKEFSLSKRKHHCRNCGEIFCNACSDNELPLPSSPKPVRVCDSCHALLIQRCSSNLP
UniProt Q96AB3: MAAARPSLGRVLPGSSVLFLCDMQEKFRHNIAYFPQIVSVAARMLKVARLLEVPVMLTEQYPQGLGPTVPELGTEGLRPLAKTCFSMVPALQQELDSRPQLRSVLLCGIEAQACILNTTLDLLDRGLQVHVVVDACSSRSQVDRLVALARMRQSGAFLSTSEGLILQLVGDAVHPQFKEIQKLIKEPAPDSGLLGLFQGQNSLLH
UniProt H0UI80: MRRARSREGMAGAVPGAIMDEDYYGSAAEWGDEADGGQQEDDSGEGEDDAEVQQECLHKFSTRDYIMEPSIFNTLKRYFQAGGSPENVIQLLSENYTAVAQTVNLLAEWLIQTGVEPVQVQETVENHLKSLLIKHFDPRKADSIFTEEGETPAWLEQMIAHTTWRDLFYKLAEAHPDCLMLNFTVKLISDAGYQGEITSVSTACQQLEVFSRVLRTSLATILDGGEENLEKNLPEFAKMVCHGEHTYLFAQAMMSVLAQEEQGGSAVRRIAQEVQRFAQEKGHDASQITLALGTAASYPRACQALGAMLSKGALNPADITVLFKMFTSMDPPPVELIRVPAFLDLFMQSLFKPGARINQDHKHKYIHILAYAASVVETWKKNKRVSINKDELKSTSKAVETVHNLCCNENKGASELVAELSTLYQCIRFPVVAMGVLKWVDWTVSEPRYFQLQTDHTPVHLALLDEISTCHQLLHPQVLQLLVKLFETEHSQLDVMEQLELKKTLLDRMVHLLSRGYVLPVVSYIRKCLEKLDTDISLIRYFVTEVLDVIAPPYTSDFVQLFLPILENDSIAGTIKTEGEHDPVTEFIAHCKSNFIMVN
UniProt Q8IXH7, whole entry, looked up: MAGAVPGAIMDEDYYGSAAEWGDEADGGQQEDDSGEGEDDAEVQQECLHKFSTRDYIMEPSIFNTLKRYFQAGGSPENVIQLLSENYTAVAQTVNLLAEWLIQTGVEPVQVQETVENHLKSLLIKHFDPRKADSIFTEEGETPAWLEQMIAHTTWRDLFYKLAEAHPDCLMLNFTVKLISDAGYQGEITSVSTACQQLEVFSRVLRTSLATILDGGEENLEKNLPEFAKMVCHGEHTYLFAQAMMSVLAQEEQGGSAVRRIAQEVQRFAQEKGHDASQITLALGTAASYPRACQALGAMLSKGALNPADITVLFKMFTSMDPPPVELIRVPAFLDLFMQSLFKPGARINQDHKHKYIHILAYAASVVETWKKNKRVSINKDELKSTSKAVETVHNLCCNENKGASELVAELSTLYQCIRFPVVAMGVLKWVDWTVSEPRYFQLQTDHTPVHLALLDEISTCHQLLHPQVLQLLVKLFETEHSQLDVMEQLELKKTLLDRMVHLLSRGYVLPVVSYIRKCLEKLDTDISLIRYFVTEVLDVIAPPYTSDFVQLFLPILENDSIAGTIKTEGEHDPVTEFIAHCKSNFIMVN
UniProt Q12982: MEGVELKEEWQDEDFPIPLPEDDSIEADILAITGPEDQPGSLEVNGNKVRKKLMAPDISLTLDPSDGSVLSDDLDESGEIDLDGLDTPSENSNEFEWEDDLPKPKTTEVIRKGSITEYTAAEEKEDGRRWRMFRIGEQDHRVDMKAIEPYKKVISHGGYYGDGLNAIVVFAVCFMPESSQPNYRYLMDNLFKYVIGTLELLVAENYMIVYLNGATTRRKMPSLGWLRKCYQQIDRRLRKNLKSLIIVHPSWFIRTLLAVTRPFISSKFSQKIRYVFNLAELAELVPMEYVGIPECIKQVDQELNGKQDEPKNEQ
UniProt Q12968: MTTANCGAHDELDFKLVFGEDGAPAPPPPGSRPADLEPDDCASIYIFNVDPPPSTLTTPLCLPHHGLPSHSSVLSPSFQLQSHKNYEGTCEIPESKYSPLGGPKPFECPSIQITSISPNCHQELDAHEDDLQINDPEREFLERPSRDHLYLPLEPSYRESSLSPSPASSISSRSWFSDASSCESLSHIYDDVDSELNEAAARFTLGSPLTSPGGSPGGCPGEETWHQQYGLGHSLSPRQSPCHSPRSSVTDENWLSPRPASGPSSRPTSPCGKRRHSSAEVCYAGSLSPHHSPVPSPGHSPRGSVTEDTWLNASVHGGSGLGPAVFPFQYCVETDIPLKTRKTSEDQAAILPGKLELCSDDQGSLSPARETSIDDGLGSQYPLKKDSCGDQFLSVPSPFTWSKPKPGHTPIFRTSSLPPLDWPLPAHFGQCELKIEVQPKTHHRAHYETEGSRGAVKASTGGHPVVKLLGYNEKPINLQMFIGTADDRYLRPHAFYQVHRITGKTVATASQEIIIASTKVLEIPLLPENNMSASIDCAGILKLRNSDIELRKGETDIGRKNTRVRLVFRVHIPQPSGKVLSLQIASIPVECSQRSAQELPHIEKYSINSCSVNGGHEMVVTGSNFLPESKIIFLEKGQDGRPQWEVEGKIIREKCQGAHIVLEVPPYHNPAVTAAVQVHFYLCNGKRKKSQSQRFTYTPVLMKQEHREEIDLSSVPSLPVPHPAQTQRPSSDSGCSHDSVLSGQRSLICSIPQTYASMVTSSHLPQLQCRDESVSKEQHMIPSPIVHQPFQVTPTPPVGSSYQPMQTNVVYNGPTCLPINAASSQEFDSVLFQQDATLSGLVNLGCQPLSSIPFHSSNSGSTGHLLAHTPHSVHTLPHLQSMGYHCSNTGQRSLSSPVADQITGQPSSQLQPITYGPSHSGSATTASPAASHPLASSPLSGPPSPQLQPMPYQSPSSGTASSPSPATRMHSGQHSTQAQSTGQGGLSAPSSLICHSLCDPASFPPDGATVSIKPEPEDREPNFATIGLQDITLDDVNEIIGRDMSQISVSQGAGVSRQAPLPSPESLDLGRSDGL
UniProt L0R6Q1: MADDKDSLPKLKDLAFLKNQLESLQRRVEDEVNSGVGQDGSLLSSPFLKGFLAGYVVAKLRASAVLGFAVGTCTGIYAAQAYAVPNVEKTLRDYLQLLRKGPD
UniProt O95759: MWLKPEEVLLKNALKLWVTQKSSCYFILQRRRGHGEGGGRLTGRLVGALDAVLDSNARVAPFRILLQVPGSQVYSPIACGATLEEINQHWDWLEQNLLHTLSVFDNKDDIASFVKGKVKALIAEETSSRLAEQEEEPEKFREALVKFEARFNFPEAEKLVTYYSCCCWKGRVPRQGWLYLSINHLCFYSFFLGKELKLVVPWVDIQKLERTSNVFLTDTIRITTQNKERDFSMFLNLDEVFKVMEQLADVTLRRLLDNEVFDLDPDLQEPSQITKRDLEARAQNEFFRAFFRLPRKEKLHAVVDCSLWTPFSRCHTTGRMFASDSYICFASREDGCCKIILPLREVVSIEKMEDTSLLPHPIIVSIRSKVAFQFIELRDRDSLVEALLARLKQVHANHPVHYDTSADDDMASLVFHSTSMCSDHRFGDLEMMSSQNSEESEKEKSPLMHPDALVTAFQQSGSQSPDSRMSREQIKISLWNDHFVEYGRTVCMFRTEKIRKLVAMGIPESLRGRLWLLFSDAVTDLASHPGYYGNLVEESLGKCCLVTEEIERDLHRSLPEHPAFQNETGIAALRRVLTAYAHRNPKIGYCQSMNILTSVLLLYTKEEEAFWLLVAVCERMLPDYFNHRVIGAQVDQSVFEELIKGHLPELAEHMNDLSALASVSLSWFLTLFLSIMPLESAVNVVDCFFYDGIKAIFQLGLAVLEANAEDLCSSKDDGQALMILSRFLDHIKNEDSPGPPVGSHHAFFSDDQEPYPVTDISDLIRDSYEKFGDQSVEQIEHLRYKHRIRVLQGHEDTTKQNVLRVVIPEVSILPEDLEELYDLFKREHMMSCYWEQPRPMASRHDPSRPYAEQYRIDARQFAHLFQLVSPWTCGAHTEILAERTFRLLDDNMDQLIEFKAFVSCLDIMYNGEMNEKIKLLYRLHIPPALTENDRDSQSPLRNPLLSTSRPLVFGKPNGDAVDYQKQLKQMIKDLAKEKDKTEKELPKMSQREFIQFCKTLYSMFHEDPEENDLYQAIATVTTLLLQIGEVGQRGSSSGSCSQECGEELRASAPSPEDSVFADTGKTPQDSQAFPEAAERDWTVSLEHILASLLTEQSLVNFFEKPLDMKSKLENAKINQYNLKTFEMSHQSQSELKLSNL

Compound: Nc1ncnc2c1ncn2[C@@H]1O[C@H](COP(=O)(O)OP(=O)(O)OP(=O)(O)O)[C@@H](O)[C@H]1O [adenosine triphosphate]
Experiment: NP40-soluble protein abundance relative to vehicle (solubility fold change) (ratio); higher = more soluble protein in presence of ATP
Procedure, shortened: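 Data come from three independent experiments in which Dounce-homogenised Jurkat crude lysate was treated at eight concentrations from 0.1 to 10 mM. Treatment ran 10 min at room temperature and then 3 min at 37 °C, after which 0.8% NP40 and benzonase were added for 60 min at 4 °C before ultracentrifugation. The supernatant underwent TMT labelling and LC-MS/MS, and vsn-normalised intensities were expressed as fold change against the detergent-processed vehicle in each replicate.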

Target	NP40-soluble protein abundance (concentration: 1mM)	NP40-soluble protein abundance (concentration: 2mM)	NP40-soluble protein abundance (concentration: 4mM)	NP40-soluble protein abundance (concentration: 6mM)	NP40-soluble protein abundance (concentration: 8mM)	NP40-soluble protein abundance (concentration: 10mM)
K7EPJ5 and related entries (UniProt O60291)	0.927 ± 0.035	0.916 ± 0.044	0.899 ± 0.027	0.961 ± 0.031	0.905 ± 0.02	0.888 ± 0.018
K7EK07 and related entries (UniProt P84243+K7EK07)	0.817 ± 0.25	0.832 ± 0.13	0.827 ± 0.13	0.948 ± 0.12	0.956 ± 0.036	1.02 ± 0.065
H7C1U8 and related entries (UniProt Q9BUR5)	0.934 ± 0.032	0.944 ± 0.017	0.92 ± 0.018	0.93 ± 0.028	0.908 ± 0.013	0.877 ± 0.046
H3BNX8 and related entries (UniProt P20674)	0.985 ± 0.023	0.977 ± 0.055	0.978 ± 0.038	0.994 ± 0.092	1.01 ± 0.04	0.946 ± 0.13
J3KP92 and related entries (UniProt Q86Z02)	0.924 ± 0.14	0.979 ± 0.06	0.975 ± 0.13	0.933 ± 0.093	1.04 ± 0.12	1.04 ± 0.068
I3L4B6 and related entries (UniProt Q67FW5)	0.943 ± 0.033	1.05 ± 0.075	0.963 ± 0.1	0.931 ± 0.0082	1.04 ± 0.084	1.02 ± 0.013
H3BLZ8 (UniProt Q92841)	1.09 ± 0.1	0.948 ± 0.2	1.23 ± 0.17	1.04 ± 0.23	1.24 ± 0.11	1.06 ± 0.2
K7EMX1 and related entries (UniProt Q8NBT2)	0.947 ± 0.12	0.914 ± 0.092	0.909 ± 0.032	0.975 ± 0.054	0.93 ± 0.043	0.841 ± 0.077
K7ENQ8 and related entries (UniProt Q15438)	1.017 ± 0.0027	0.987 ± 0.021	1.02 ± 0.053	0.981 ± 0.016	0.987 ± 0.026	0.969 ± 0.025
J3KN32 and related entries (UniProt Q9UKL0)	0.979 ± 0.022	0.987 ± 0.036	0.987 ± 0.07	1.03 ± 0.051	1 ± 0.07	1.01 ± 0.036
J3KQ48 and related entries (UniProt Q9Y3E5)	1.03 ± 0.027	1.02 ± 0.029	1.02 ± 0.034	1.04 ± 0.021	1.02 ± 0.018	0.977 ± 0.06
H0YD93 and related entries (UniProt Q8WXA3)	0.98 ± 0.14	1.01 ± 0.092	1.02 ± 0.067	0.949 ± 0.15	0.948 ± 0.042	0.966 ± 0.11
H3BP16 and related entries (UniProt Q9NVX0)	1.02 ± 0.02	1.01 ± 0.026	1.04 ± 0.017	0.974 ± 0.056	1.06 ± 0.03	0.996 ± 0.058
H0Y6Y6 and related entries (UniProt P29017)	0.891 ± 0.06	1.02 ± 0.11	1.02 ± 0.16	0.934 ± 0.018	0.92 ± 0.043	0.896 ± 0.0039
K7EKW4 and related entries (UniProt Q96AB3)	0.963 ± 0.075	0.957 ± 0.1	0.94 ± 0.092	0.871 ± 0.13	0.925 ± 0.061	0.939 ± 0.059
J3KQL8 (UniProt Q9BQE5)	0.966 ± 0.027	0.973 ± 0.02	0.959 ± 0.035	0.977 ± 0.014	0.942 ± 0.029	0.941 ± 0.028
K7ELL7 and related entries (UniProt P14314)	0.922 ± 0.02	0.907 ± 0.014	0.878 ± 0.016	0.921 ± 0.026	0.897 ± 0.037	0.877 ± 0.0098
K7EP14 and related entries (UniProt P07992)	0.996 ± 0.014	0.985 ± 0.028	0.929 ± 0.0094	0.936 ± 0.017	0.964 ± 0.023	0.912 ± 0.063
H3BNM4 and related entries (UniProt Q8NBZ0)	1.22 ± 0.14	1.3 ± 0.12	1.23 ± 0.13	1.26 ± 0.16	1.29 ± 0.056	1.06 ± 0.33
H0UI80 and related entries (UniProt X6RLT1+Q8IXH7+H0UI80)	0.964 ± 0.045	0.984 ± 0.033	0.94 ± 0.061	0.968 ± 0.064	0.93 ± 0.053	0.932 ± 0.037
H7C096 and related entries (UniProt Q12982)	0.828 ± 0.15	0.818 ± 0.12	0.782 ± 0.13	0.759 ± 0.16	0.745 ± 0.15	0.703 ± 0.2
H7BXY6 and related entries (UniProt Q8NG11)	0.926 ± 0.037	0.997 ± 0.085	0.905 ± 0.11	0.984 ± 0.081	0.912 ± 0.05	0.894 ± 0.052
I3L3K7 and related entries (UniProt Q12968)	1.05 ± 0.034	1.01 ± 0.056	1.01 ± 0.055	1.01 ± 0.039	0.975 ± 0.024	1.02 ± 0.048
J3QK89 and related entries (UniProt Q8IWX8)	1.1 ± 0.084	1.13 ± 0.081	1.16 ± 0.075	1.28 ± 0.17	1.24 ± 0.049	1.26 ± 0.077
SLC35A4 (UniProt L0R6Q1)	0.836 ± 0.08	0.839 ± 0.066	0.816 ± 0.082	0.847 ± 0.072	0.829 ± 0.051	0.779 ± 0.11
J3KQ40 and related entries (UniProt O95759)	1.04 ± 0.13	0.903 ± 0.15	1.06 ± 0.2	0.984 ± 0.16	1.1 ± 0.26	1.12 ± 0.12
G5E9Q6 and related entries (UniProt P35080)	0.964 ± 0.029	1 ± 0.026	0.982 ± 0.034	0.948 ± 0.023	0.934 ± 0.021	0.966 ± 0.029
J3QLM1 and related entries (UniProt Q14849)	1.14 ± 0.27	1.07 ± 0.13	1.1 ± 0.23	1.07 ± 0.052	1.19 ± 0.021	1.04 ± 0.21
H3BM14 and related entries (UniProt Q9Y5A7)	0.989 ± 0.035	0.986 ± 0.05	0.991 ± 0.051	0.946 ± 0.081	0.942 ± 0.063	0.975 ± 0.034
H0YKC9 and related entries (UniProt Q9HA82)	0.992 ± 0.021	0.97 ± 0.18	0.976 ± 0.12	0.959 ± 0.21	0.955 ± 0.2	0.993 ± 0.13

Exported field by field: part of the list above
K7EKW4 and related entries (UniProt Q96AB3)
  NP40-soluble protein abundance (concentration: 1mM): 0.963 ± 0.075; NP40-soluble protein abundance (concentration: 2mM): 0.957 ± 0.1; NP40-soluble protein abundance (concentration: 4mM): 0.94 ± 0.092; NP40-soluble protein abundance (concentration: 6mM): 0.871 ± 0.13; NP40-soluble protein abundance (concentration: 8mM): 0.925 ± 0.061; NP40-soluble protein abundance (concentration: 10mM): 0.939 ± 0.059
I3L3K7 and related entries (UniProt Q12968)
  NP40-soluble protein abundance (concentration: 1mM): 1.05 ± 0.034; NP40-soluble protein abundance (concentration: 2mM): 1.01 ± 0.056; NP40-soluble protein abundance (concentration: 4mM): 1.01 ± 0.055; NP40-soluble protein abundance (concentration: 6mM): 1.01 ± 0.039; NP40-soluble protein abundance (concentration: 8mM): 0.975 ± 0.024; NP40-soluble protein abundance (concentration: 10mM): 1.02 ± 0.048
